Laboratory results as given in patent US12642856B2, “Degraders of hepatitis C virus NS3/4A protein” (DANA-FARBER CANCER INSTITUTE, INC., priority 2018, dated 2026).
Some entries share one result that the patent states for a list of compounds. For part of these data: At least one structure is not confirmed: it was looked up by name or label, or the drawing left a doubt.

Chains of the proteins cited; added tags and fusions are not shown. Lines headed by an entry give the natural chain unless they say otherwise; changes in a name come on top. Residues count along the entry.
UniProt P27958, 1027-1657: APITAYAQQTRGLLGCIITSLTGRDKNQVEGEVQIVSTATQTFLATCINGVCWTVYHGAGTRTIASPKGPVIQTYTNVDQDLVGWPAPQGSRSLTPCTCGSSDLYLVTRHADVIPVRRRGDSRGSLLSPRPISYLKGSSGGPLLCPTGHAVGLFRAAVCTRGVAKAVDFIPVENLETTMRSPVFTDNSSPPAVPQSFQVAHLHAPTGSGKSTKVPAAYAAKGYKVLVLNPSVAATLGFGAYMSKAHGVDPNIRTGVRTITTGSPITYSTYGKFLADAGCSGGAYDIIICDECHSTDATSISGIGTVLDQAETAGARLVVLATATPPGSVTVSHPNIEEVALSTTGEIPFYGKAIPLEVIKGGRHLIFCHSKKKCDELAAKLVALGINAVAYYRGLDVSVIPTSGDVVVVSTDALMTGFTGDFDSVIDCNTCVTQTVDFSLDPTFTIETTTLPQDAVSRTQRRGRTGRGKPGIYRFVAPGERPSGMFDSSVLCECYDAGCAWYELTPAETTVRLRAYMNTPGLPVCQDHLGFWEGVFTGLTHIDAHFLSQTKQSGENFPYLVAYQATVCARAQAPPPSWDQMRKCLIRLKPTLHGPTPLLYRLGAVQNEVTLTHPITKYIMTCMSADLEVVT
UniProt Q96SW2: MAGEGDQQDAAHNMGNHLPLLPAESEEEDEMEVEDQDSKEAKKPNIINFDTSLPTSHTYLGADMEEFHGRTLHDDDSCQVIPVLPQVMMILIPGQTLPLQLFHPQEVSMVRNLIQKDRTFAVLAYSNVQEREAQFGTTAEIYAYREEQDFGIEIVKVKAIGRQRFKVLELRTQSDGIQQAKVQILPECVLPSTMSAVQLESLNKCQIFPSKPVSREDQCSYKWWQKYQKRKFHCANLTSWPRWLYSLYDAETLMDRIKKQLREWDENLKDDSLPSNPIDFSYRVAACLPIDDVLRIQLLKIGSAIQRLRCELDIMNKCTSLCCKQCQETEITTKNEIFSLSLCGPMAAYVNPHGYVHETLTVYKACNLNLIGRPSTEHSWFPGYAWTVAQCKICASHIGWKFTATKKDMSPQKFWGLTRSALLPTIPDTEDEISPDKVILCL

Tests used:
[1] = molecular target: T1, full-length HCV NS3 protein fused to eGFP (UniProt P27958+Q96SW2); assay: Transient cellular HCV NS3 degradation assay; type: cell-based, Hepatitis C virus; conditions: N-methylated glutarimide negative controls
T1 construct: expressing the full-length HCV NS3 protein fused to eGFP; mCherry via FMVD 2A self-cleavage linker (C, cleaved yes); expressed in transfected cells
Text: A system was set up to monitor NS3 degradation in the absence of other processes of the infectious viral cycle. […] Expressed in the absence of its cofactor, NS4A, the NS3 protein lacks any enzymatic activity, and the abundance of the NS3-eGFP fusion protein can be reliably monitored by eGFP fluorescence. Since the mCherry portion of the fusion protein is cleaved off during translation, its abundance in cells is not affected by small molecule-induced degradation of NS3-eGFP, and thus it serves as a control for protein expression. […]
The NS3 expressing cells were treated with increasing concentrations of compounds 13 and 22 for 4 hours. […] Compound 11 is an alpha-hydroxylamide analog of compound 13 that cannot form a covalent bond with the catalytic serine of the HCV NS3/4A protease due to a modification of the α-ketoamide group. […] The NS3 expressing cells were treated with increasing concentrations of compounds for 4 hours.

HCV genotype 1 infection = conditions: in combination with PEG-IFN and RBV; patients with HCV genotype 1 infection; cited from earlier work

| Structure (SMILES) | binding to cereblon (concluded from degradation assay) [1] | sustained virological response (SVR) rate (HCV genotype 1 infection) | further results |
| --- | --- | --- | --- |
| CCC[C@H](NC(=O)[C@@H]1[C@H]2CCC[C@H]2CN1C(=O)[C@@H](NC(=O)[C@@H](NC(=O)c1cnc(C(=O)NCCOCCOCCNc2cccc3c2C(=O)N(C2CCC(=O)N(C)C2=O)C3=O)cn1)C1CCCCC1)C(C)(C)C)C(=O)C(=O)NC1CC1 (stereo partly drawn) [Compound 19, N2-((S)-1-cyclohexyl-2-((S)-1-((1S,3aR,6aS)-1-((S)-1-(cyclopropylamino)-1,2-dioxohexan-3-ylcarbamoyl)hexahydrocyclopenta[c]pyrrol-2(1H)-yl)-3,3-dimethyl-1-oxobutan-2-ylamino)-2-oxoethyl)-N5-(2-(2-(2-(2-(1-methyl-2,6-dioxopiperidin-3-yl)-1,3-dioxoisoindolin-4-ylamino)ethoxy)ethoxy)ethyl)pyrazine-2,5-dicarboxamide] | abolished binding to cereblon | – | – |
| CCC[C@H](NC(=O)[C@@H]1[C@H]2CCC[C@H]2CN1C(=O)[C@@H](NC(=O)[C@@H](NC(=O)c1cnc(C(=O)NCCOCCOCCNc2cccc3c2C(=O)N(C2CCC(=O)N(C)C2=O)C3=O)cn1)C1CCCCC1)C(C)(C)C)C(=O)C(=O)NC1CC1 (stereo partly drawn) [Compound 20] | abolished binding to cereblon | – | – |
| CCC[C@H](NC(=O)[C@@H]1[C@H]2CCC[C@H]2CN1C(=O)[C@@H](NC(=O)[C@@H](NC(=O)c1cnc(C(=O)NCCOCCOCCNc2cccc3c2C(=O)N(C2CCC(=O)N(C)C2=O)C3=O)cn1)C1CCCCC1)C(C)(C)C)C(O)C(=O)NC1CC1 (stereo partly drawn) [Compound 21, N2-((1S)-1-cyclohexyl-2-((2S)-1-((1S,3aR,6aS)-1-((3S)-1-(cyclopropylamino)-2-hydroxy-1-oxohexan-3-ylcarbamoyl)hexahydrocyclopenta[c]pyrrol-2(1H)-yl)-3,3-dimethyl-1-oxobutan-2-ylamino)-2-oxoethyl)-N5-(2-(2-(2-(2-(1-methyl-2,6-dioxopiperidin-3-yl)-1,3-dioxoisoindolin-4-ylamino)ethoxy)ethoxy)ethyl)pyrazine-2,5-dicarboxamide] | abolished binding to cereblon | – | – |
| CCC[C@H](NC(=O)[C@@H]1[C@H]2CCC[C@H]2CN1C(=O)[C@@H](NC(=O)[C@@H](NC(=O)c1cnc(C(=O)NCCOCCOCCOc2cc3c4c(cccc4c2)C(=O)N(C2CCC(=O)N(C)C2=O)C3=O)cn1)C1CCCCC1)C(C)(C)C)C(=O)C(=O)NC1CC1 (stereo partly drawn) [Compound 22, N2-((S)-1-cyclohexyl-2-((S)-1-((1S,3aR,6aS)-1-((S)-1-(cyclopropylamino)-1,2-dioxohexan-3-ylcarbamoyl)hexahydrocyclopenta[c]pyrrol-2(1H)-yl)-3,3-dimethyl-1-oxobutan-2-ylamino)-2-oxoethyl)-N5-(2-(2-(2-(2-(1-methyl-2,6-dioxopiperidin-3-yl)-1,3-dioxo-2,3-dihydro-1H-benzo[de]isoquinolin-5-yloxy)ethoxy)ethoxy)ethyl)pyrazine-2,5-dicarboxamide] | – | – | binding to cereblon (concluded from degradation assay) ([1]; listed as compound 22): abolished binding to cereblon |
| CC(C)(C)NC(=O)N[C@H](C(=O)N1C[C@H]2[C@@H]([C@H]1C(=O)NC(CC1CCC1)C(=O)C(N)=O)C2(C)C)C(C)(C)C (stereo partly drawn) [boceprevir] | – | ≤ 70% | – |
| CCC[C@H](NC(=O)[C@@H]1[C@H]2CCC[C@H]2CN1C(=O)[C@@H](NC(=O)[C@@H](NC(=O)c1cnccn1)C1CCCCC1)C(C)(C)C)C(=O)C(=O)NC1CC1 [telaprevir, reference compound] | – | ≤ 70% | – |
